Measurements as given in the supplement of paper PMC8728848.
The list shows a part of the results.

Tests used:
Test in all cases: glycan array binding signal (z-score within array); higher = stronger binding
Conditions in all cases: glycan notation: IUPAC condensed, linker removed
[1] = molecular target: Gal(b1-4)GlcNAc(b1-2)[Gal(b1-4)GlcNAc(b1-6)]Man(a1-6)[GlcNAc(b1-4)][Gal(b1-4)GlcNAc(b1-2)Man(a1-3)]Man(b1-4)GlcNAc(b1-4)GlcNAc
Method in brief: (§1)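 The binding signal is a Z-score computed within each array and averaged over linkers. Arrays of the same protein sequence at different concentrations or buffers were also averaged together. Data originate from 3228 arrays in the Consortium for Functional Glycomics database, kept only where the protein sequence was available.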

[2] = molecular target: Gal(b1-4)GlcNAc(b1-2)[Gal(b1-4)GlcNAc(b1-6)]Man(a1-6)[GlcNAc(b1-4)][Gal(b1-4)GlcNAc(b1-2)[Gal(b1-4)GlcNAc(b1-4)]Man(a1-3)]Man(b1-4)GlcNAc(b1-4)[Fuc(a1-6)]GlcNAc
Method in brief: as §1

[3] = molecular target: Gal(b1-4)GlcNAc(b1-3)Gal(b1-3)GalNAc
Method in brief: as §1

[4] = molecular target: Gal(b1-4)GlcNAc(b1-3)Gal(b1-3)GlcNAc
Method in brief: as §1

[5] = molecular target: Gal(b1-4)GlcNAc(b1-3)Gal(b1-4)Glc
Method in brief: as §1

[6] = molecular target: Gal(b1-4)GlcNAc(b1-3)Gal(b1-4)GlcNAc
Method in brief: as §1

[7] = molecular target: Gal(b1-4)GlcNAc(b1-3)Gal(b1-4)GlcNAc(b1-2)Man(a1-3)[Gal(b1-4)GlcNAc(b1-3)Gal(b1-4)GlcNAc(b1-2)Man(a1-6)]Man(b1-4)GlcNAc(b1-4)GlcNAc
Method in brief: as §1

[8] = molecular target: Gal(b1-4)GlcNAc(b1-3)Gal(b1-4)GlcNAc(b1-2)Man(a1-3)[Gal(b1-4)GlcNAc(b1-3)Gal(b1-4)GlcNAc(b1-2)Man(a1-6)]Man(b1-4)GlcNAc(b1-4)[Fuc(a1-6)]GlcNAc
Method in brief: as §1

[9] = molecular target: Gal(b1-4)GlcNAc(b1-3)Gal(b1-4)GlcNAc(b1-2)[Gal(b1-4)GlcNAc(b1-3)Gal(b1-4)GlcNAc(b1-6)]Man(a1-6)[Gal(b1-4)GlcNAc(b1-3)Gal(b1-4)GlcNAc(b1-2)Man(a1-3)]Man(b1-4)GlcNAc(b1-4)GlcNAc
Method in brief: as §1

[10] = molecular target: Gal(b1-4)GlcNAc(b1-3)Gal(b1-4)GlcNAc(b1-2)[Gal(b1-4)GlcNAc(b1-3)Gal(b1-4)GlcNAc(b1-6)]Man(a1-6)[Gal(b1-4)GlcNAc(b1-3)Gal(b1-4)GlcNAc(b1-2)Man(a1-3)]Man(b1-4)GlcNAc(b1-4)[Fuc(a1-6)]GlcNAc
Method in brief: as §1

[11] = molecular target: Gal(b1-4)GlcNAc(b1-3)Gal(b1-4)GlcNAc(b1-3)Gal(b1-4)GlcNAc
Method in brief: as §1

[12] = molecular target: Gal(b1-4)GlcNAc(b1-3)Gal(b1-4)GlcNAc(b1-3)Gal(b1-4)GlcNAc(b1-2)Man(a1-3)[Gal(b1-4)GlcNAc(b1-3)Gal(b1-4)GlcNAc(b1-3)Gal(b1-4)GlcNAc(b1-2)Man(a1-6)]Man(b1-4)GlcNAc(b1-4)GlcNAc
Method in brief: as §1

[13] = molecular target: Gal(b1-4)GlcNAc(b1-3)Gal(b1-4)GlcNAc(b1-3)Gal(b1-4)GlcNAc(b1-2)Man(a1-3)[Gal(b1-4)GlcNAc(b1-3)Gal(b1-4)GlcNAc(b1-3)Gal(b1-4)GlcNAc(b1-2)Man(a1-6)]Man(b1-4)GlcNAc(b1-4)[Fuc(a1-6)]GlcNAc
Method in brief: as §1

[14] = molecular target: Gal(b1-4)GlcNAc(b1-3)Gal(b1-4)GlcNAc(b1-3)Gal(b1-4)GlcNAc(b1-2)[Gal(b1-4)GlcNAc(b1-3)Gal(b1-4)GlcNAc(b1-3)Gal(b1-4)GlcNAc(b1-6)]Man(a1-6)[Gal(b1-4)GlcNAc(b1-3)Gal(b1-4)GlcNAc(b1-3)Gal(b1-4)GlcNAc(b1-2)Man(a1-3)]Man(b1-4)GlcNAc(b1-4)[Fuc(a1-6)]GlcNAc
Method in brief: as §1

[15] = molecular target: Gal(b1-4)GlcNAc(b1-3)Gal(b1-4)GlcNAc(b1-3)Gal(b1-4)GlcNAc(b1-3)Gal(b1-4)GlcNAc(b1-2)Man(a1-3)[Gal(b1-4)GlcNAc(b1-3)Gal(b1-4)GlcNAc(b1-3)Gal(b1-4)GlcNAc(b1-3)Gal(b1-4)GlcNAc(b1-2)Man(a1-6)]Man(b1-4)GlcNAc(b1-4)GlcNAc
Method in brief: as §1

[16] = molecular target: Gal(b1-4)GlcNAc(b1-3)Gal(b1-4)GlcNAc(b1-3)Gal(b1-4)GlcNAc(b1-3)Gal(b1-4)GlcNAc(b1-2)Man(a1-3)[Gal(b1-4)GlcNAc(b1-3)Gal(b1-4)GlcNAc(b1-3)Gal(b1-4)GlcNAc(b1-3)Gal(b1-4)GlcNAc(b1-2)Man(a1-6)]Man(b1-4)GlcNAc(b1-4)[Fuc(a1-6)]GlcNAc
Method in brief: as §1

[17] = molecular target: Gal(b1-4)GlcNAc(b1-3)Gal(b1-4)GlcNAc(b1-3)Gal(b1-4)GlcNAc(b1-3)Gal(b1-4)GlcNAc(b1-2)[Gal(b1-4)GlcNAc(b1-3)Gal(b1-4)GlcNAc(b1-3)Gal(b1-4)GlcNAc(b1-3)Gal(b1-4)GlcNAc(b1-6)]Man(a1-6)[Gal(b1-4)GlcNAc(b1-3)Gal(b1-4)GlcNAc(b1-3)Gal(b1-4)GlcNAc(b1-3)Gal(b1-4)GlcNAc(b1-2)Man(a1-3)]Man(b1-4)GlcNAc(b1-4)[Fuc(a1-6)]GlcNAc
Method in brief: as §1

[18] = molecular target: Gal(b1-4)GlcNAc(b1-3)Gal(b1-4)GlcNAc(b1-3)Gal(b1-4)GlcNAc(b1-3)Gal(b1-4)GlcNAc(b1-3)Gal(b1-4)GlcNAc(b1-2)Man(a1-3)[Gal(b1-4)GlcNAc(b1-3)Gal(b1-4)GlcNAc(b1-3)Gal(b1-4)GlcNAc(b1-3)Gal(b1-4)GlcNAc(b1-3)Gal(b1-4)GlcNAc(b1-2)Man(a1-6)]Man(b1-4)GlcNAc(b1-4)GlcNAc
Method in brief: as §1

[19] = molecular target: Gal(b1-4)GlcNAc(b1-3)Gal(b1-4)GlcNAc(b1-3)Gal(b1-4)GlcNAc(b1-3)Gal(b1-4)GlcNAc(b1-3)Gal(b1-4)GlcNAc(b1-2)Man(a1-3)[Gal(b1-4)GlcNAc(b1-3)Gal(b1-4)GlcNAc(b1-3)Gal(b1-4)GlcNAc(b1-3)Gal(b1-4)GlcNAc(b1-3)Gal(b1-4)GlcNAc(b1-2)Man(a1-6)]Man(b1-4)GlcNAc(b1-4)[Fuc(a1-6)]GlcNAc
Method in brief: as §1

[20] = molecular target: Gal(b1-4)GlcNAc(b1-3)Gal(b1-4)GlcNAc(b1-3)Gal(b1-4)GlcNAc(b1-3)Gal(b1-4)GlcNAc(b1-3)Gal(b1-4)GlcNAc(b1-2)[Gal(b1-4)GlcNAc(b1-3)Gal(b1-4)GlcNAc(b1-3)Gal(b1-4)GlcNAc(b1-3)Gal(b1-4)GlcNAc(b1-3)Gal(b1-4)GlcNAc(b1-6)]Man(a1-6)[Gal(b1-4)GlcNAc(b1-3)Gal(b1-4)GlcNAc(b1-3)Gal(b1-4)GlcNAc(b1-3)Gal(b1-4)GlcNAc(b1-3)Gal(b1-4)GlcNAc(b1-2)Man(a1-3)]Man(b1-4)GlcNAc(b1-4)[Fuc(a1-6)]GlcNAc
Method in brief: as §1

[21] = molecular target: Gal(b1-4)GlcNAc(b1-3)Gal(b1-4)GlcNAc(b1-3)Gal(b1-4)GlcNAc(b1-3)Gal(b1-4)GlcNAc(b1-3)Gal(b1-4)GlcNAc(b1-3)Gal(b1-4)GlcNAc(b1-2)Man(a1-3)[Gal(b1-4)GlcNAc(b1-3)Gal(b1-4)GlcNAc(b1-3)Gal(b1-4)GlcNAc(b1-3)Gal(b1-4)GlcNAc(b1-3)Gal(b1-4)GlcNAc(b1-3)Gal(b1-4)GlcNAc(b1-2)Man(a1-6)]Man(b1-4)GlcNAc(b1-4)GlcNAc
Method in brief: as §1

[22] = molecular target: Gal(b1-4)GlcNAc(b1-3)Gal(b1-4)GlcNAc(b1-3)GalNAc
Method in brief: as §1

[23] = molecular target: Gal(b1-4)GlcNAc(b1-3)Gal(b1-4)GlcNAc(b1-3)[Gal(b1-4)GlcNAc(b1-3)Gal(b1-4)GlcNAc(b1-6)]GalNAc
Method in brief: as §1

[24] = molecular target: Gal(b1-4)GlcNAc(b1-3)Gal(b1-4)GlcNAc(b1-6)[Gal(b1-3)]GalNAc
Method in brief: as §1

[25] = molecular target: Gal(b1-4)GlcNAc(b1-3)Gal(b1-4)[Fuc(a1-3)]GlcNAc(b1-3)Gal(b1-4)[Fuc(a1-3)]GlcNAc
Method in brief: as §1

[26] = molecular target: Gal(b1-4)GlcNAc(b1-3)GalNAc
Method in brief: as §1

[27] = molecular target: Gal(b1-4)GlcNAc(b1-3)[Fuc(a1-3)GlcNAc(b1-6)]Gal(b1-4)Glc
Method in brief: as §1

[28] = molecular target: Gal(b1-4)GlcNAc(b1-3)[Gal(b1-4)GlcNAc(b1-6)]Gal(b1-4)GlcNAc
Method in brief: as §1

[29] = molecular target: Gal(b1-4)GlcNAc(b1-3)[GlcNAc(b1-6)]Gal(b1-4)GlcNAc
Method in brief: as §1

[30] = molecular target: Gal(b1-4)GlcNAc(b1-6)Gal(b1-4)GlcNAc
Method in brief: as §1

[31] = molecular target: Gal(b1-4)GlcNAc(b1-6)GalNAc
Method in brief: as §1

[32] = molecular target: Gal(b1-4)GlcNAc(b1-6)[Gal(b1-3)]GalNAc
Method in brief: as §1

[33] = molecular target: Gal(b1-4)GlcNAc(b1-6)[Gal(b1-4)GlcNAc(b1-3)]GalNAc
Method in brief: as §1

[34] = molecular target: Gal(b1-4)GlcNAc6P
Method in brief: as §1

[35] = molecular target: Gal(b1-6)Gal
Method in brief: as §1

[36] = molecular target: Gal3S(b1-3)GalNAc
Method in brief: as §1

[37] = molecular target: Gal3S(b1-3)GlcNAc
Method in brief: as §1

[38] = molecular target: Gal3S(b1-3)[Fuc(a1-4)]GlcNAc
Method in brief: as §1

B1: Gs78B-bfa-542-29-542 (Bacteroides fragilis) (protein)
chain: SEDINRNPLLPTKEDEKMDGVIYGAYLPNLEKSVIPIGTASESTEPVNRYQIGVNLAGDAWAGYMSPRDNKFNGSKNFTNYFMYENWVNYVYSFMVTDVYSPWMQIKRISQDEGTRNDEIYALAQIIKIAALHRTTDMFGPIPYSQVGKGSFKVAYDSQESVYRSFLKELEEAVQTLDDYSNKSKEVLPAFDIVYNGDVNKWMRFANSLMLRLAIRVRFADAGLAKEYAEKAVKHPAGLINSKELAAQMGKGAGLQMKNPLKVINEEYNDTRMGATIYSYLAGYNDARAAVYFVKNNGFKAVRCGIAKSGDAYNGFTRPNVHEDDPLYWMKASEVCFLKAEGALAGFDMGGSAGDFYNAGIRMSFSENGLDNSSAETYLKDSTRKPANYTDTSNGELSANAPSSITIRWENGATEEEKLERIITQKYLAIFPNGQEAWTEWRRTGYPRQIVVAENKTNSAVLIGNGYDLGGVRRLPYPRTEYEQNGENLHNAISQYLGGVDNAATKVWWDKKSK
[1]
  glycan array binding signal (z-score): 0.758
[2]
  glycan array binding signal (z-score): 1.22
[3]
  glycan array binding signal (z-score): 1.08
[4]
  glycan array binding signal (z-score): -0.683
[5]
  glycan array binding signal (z-score): 0.909
[6]
  glycan array binding signal (z-score): -0.463
[7]
  glycan array binding signal (z-score): 0.456
[8]
  glycan array binding signal (z-score): 2.98
[9]
  glycan array binding signal (z-score): 2.53
[10]
  glycan array binding signal (z-score): 3.42
[11]
  glycan array binding signal (z-score): 0.792
[12]
  glycan array binding signal (z-score): 2.01
[13]
  glycan array binding signal (z-score): 3.12
[14]
  glycan array binding signal (z-score): 1.06
[15]
  glycan array binding signal (z-score): 0.353
[16]
  glycan array binding signal (z-score): 1.23
[17]
  glycan array binding signal (z-score): 1.24
[18]
  glycan array binding signal (z-score): 2.16
[19]
  glycan array binding signal (z-score): 2.37
[20]
  glycan array binding signal (z-score): 0.95
[21]
  glycan array binding signal (z-score): 0.959
[22]
  glycan array binding signal (z-score): 1.04
[23]
  glycan array binding signal (z-score): 1.47
[24]
  glycan array binding signal (z-score): 2.1
[25]
  glycan array binding signal (z-score): -0.307
[26]
  glycan array binding signal (z-score): -0.394
[27]
  glycan array binding signal (z-score): 1.35
[28]
  glycan array binding signal (z-score): 2.05
[29]
  glycan array binding signal (z-score): 0.076
[30]
  glycan array binding signal (z-score): 0.329
[31]
  glycan array binding signal (z-score): 1.05
[32]
  glycan array binding signal (z-score): 0.189
[33]
  glycan array binding signal (z-score): 0.453
[34]
  glycan array binding signal (z-score): 2.33
[35]
  glycan array binding signal (z-score): -0.391
[36]
  glycan array binding signal (z-score): -0.403
[37]
  glycan array binding signal (z-score): -0.834
[38]
  glycan array binding signal (z-score): 0.253
